Results reported in patent US20240277845A1.
Results are given in words; binding and its absence hold for the method and conditions named. Some results given as binding are weak or reduced against the parent protein; the word gives no strength. For some of these results: Sequences can lack the tags named with a protein.

Sequences of proteins named here, by UniProt entry; tags and fusion partners are left off. A change or cut given only in a name is not applied to a line headed by its entry. A line that says so, or that is headed by a name, gives the form on record, which may keep a tag or linker. Residues count along the entry.
UniProt Q29983, residues 24-308: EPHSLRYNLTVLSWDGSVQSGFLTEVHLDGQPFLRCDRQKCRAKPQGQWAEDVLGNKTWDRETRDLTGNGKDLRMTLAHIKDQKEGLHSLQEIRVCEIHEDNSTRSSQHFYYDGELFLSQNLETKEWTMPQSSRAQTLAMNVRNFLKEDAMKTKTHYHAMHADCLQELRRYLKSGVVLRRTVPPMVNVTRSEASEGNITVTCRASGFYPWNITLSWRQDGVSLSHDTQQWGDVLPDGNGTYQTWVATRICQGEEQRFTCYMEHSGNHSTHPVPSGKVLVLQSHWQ
Fc-wtNKG2D (P26718, form named): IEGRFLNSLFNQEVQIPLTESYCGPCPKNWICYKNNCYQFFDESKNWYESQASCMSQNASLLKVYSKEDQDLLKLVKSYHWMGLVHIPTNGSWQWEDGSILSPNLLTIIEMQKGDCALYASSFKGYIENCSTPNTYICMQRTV

Assays:
Experiment in all cases: ELISA; ligand-Fc coated, biotinylated Fc-NKG2D titrated, streptavidin-HRP; x axis printed as 'nM ligand-Fc'
[1] = target: MICA-Fc (UniProt Q29983)
[2] = target: T1, ULBP3-Fc (UniProt Q9BZM4)
T1 sequence (looked up): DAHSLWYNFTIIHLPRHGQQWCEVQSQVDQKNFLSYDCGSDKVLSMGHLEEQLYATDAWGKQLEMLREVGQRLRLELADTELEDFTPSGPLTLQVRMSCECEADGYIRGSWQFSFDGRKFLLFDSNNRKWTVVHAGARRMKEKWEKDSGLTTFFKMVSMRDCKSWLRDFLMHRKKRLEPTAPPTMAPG

[3] = target: T2, MICB-Fc (UniProt Q29980)
T2 sequence (looked up): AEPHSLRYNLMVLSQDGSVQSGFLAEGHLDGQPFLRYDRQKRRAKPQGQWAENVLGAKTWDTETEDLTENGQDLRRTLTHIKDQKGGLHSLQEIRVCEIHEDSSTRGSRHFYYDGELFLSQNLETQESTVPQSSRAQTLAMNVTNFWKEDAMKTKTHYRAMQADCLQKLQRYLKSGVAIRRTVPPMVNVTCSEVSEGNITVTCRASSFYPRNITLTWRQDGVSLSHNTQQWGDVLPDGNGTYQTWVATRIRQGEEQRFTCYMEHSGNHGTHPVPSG

[4] = target: T3, ULBP1-Fc (UniProt Q9BZM6)
T3 sequence (looked up): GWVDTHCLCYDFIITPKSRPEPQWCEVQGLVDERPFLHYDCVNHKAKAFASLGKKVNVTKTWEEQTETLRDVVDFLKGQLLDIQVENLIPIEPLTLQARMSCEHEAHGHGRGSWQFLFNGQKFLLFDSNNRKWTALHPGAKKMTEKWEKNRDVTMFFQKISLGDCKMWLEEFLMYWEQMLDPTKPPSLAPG

Measured: binding

Fc-wtNKG2D (from UniProt P26718 78-216) (Fc fusion)
binds: all assays above
